These are yes or no findings as the source states them, for the method shown. In cells and extracts the contact can be indirect. Where a sequence is shown, tags or fusion partners need not be part of it.
Target: T1, EGFP-fused BROMI(1–1,190) (human) (UniProt Q96NH3)
T1 sequence: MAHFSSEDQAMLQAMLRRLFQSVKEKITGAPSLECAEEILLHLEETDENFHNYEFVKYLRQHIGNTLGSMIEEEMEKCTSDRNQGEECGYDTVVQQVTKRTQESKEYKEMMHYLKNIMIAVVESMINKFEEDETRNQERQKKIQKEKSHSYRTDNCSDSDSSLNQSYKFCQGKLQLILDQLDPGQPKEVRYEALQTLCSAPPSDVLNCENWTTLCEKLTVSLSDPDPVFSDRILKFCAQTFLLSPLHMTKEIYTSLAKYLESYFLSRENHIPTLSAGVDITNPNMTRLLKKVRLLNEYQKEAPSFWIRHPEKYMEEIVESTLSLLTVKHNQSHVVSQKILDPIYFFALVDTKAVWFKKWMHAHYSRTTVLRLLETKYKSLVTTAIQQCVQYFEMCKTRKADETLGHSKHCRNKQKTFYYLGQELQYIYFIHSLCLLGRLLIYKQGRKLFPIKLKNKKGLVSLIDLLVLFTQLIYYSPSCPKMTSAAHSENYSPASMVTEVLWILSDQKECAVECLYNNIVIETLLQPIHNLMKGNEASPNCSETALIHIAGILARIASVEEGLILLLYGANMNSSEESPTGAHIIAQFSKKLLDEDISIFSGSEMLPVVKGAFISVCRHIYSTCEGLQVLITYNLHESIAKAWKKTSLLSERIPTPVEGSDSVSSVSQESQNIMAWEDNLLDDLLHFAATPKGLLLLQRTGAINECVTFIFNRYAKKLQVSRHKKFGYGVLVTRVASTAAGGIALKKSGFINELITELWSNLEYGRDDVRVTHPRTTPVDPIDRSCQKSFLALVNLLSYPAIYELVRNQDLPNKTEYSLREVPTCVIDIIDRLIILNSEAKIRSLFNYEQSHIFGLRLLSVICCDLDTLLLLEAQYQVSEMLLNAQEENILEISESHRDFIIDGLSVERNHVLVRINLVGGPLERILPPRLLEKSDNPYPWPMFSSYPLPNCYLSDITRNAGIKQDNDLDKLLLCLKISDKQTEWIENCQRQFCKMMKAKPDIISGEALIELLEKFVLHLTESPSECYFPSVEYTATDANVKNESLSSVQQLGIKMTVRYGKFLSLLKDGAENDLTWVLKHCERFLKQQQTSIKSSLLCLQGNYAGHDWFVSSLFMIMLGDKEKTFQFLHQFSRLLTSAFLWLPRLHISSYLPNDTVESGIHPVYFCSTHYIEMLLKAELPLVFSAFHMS
Test: co-IP; the beads of the VIP assay (EGFP-fused protein precipitated with GST-tagged anti-GFP Nb from HEK293T lysates) subjected to SDS-PAGE and immunoblotting with anti-mChe or anti-GFP antibody

CCRK-mChe (from UniProt Q8IZL9-1 1-346)
binding: no binding
